Results reported in patent US20150218251A1.
Results are given in words; binding and its absence hold for the method and conditions named. Some binding calls cover weakened binding; strength is not graded here.

Sequences of proteins named here, by UniProt entry; tags and fusion partners are left off. A change or cut given only in a name is not applied to a line headed by its entry.
UniProt P06756: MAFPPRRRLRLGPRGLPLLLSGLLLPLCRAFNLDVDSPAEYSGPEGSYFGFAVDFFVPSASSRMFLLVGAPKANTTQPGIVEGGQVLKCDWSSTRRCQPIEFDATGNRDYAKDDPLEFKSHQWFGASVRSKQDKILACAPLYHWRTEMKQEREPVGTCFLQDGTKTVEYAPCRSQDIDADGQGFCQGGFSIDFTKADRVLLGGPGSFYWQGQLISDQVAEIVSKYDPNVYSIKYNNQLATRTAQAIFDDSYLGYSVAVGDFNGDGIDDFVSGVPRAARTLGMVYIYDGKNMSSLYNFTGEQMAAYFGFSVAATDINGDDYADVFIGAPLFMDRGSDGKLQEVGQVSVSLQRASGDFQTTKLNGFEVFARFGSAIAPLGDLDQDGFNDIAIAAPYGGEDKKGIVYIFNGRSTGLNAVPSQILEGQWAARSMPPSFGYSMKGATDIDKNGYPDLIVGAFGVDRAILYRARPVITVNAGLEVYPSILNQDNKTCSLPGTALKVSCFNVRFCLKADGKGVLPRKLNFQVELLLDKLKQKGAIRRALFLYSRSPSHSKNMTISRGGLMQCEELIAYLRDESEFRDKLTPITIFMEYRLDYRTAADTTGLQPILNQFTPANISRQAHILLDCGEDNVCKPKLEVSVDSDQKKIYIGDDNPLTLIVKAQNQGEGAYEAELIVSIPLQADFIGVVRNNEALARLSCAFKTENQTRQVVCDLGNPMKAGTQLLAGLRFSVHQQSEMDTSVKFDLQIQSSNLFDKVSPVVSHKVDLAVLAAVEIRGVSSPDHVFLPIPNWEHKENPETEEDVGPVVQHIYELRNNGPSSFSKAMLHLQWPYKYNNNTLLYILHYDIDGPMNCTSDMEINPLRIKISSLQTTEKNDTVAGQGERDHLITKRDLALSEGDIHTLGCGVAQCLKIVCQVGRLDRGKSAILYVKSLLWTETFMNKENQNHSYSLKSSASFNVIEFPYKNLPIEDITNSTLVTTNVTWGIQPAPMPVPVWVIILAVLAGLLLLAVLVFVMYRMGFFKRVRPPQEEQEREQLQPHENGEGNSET

Biological target: integrin αvβ3 (UniProt P06756)
Test: cell adhesion inhibition assay (Table 4)

binding: binds
B1: Control FNIII 10 mutant (SEQ ID NO: 50, …) (designed binder)
chain: HHHHHHVSDVPRDLEVVAATPTSLLISWDAPAVTVRYYRITYGETGGNSPVQEFTVPGSKSTATISGLKPGVDYTITVYAVTPRGDWNEGSKPISINYRT
